The target of the assay is Myc-sdk-1Δ (C-terminal deletion mutant of the adhesion molecule sidekick-1). The assay can be described thus: co-IP; 293T cells doubly transfected with a Myc-tagged bait and a FLAG-tagged prey; total cellular lysates incubated with Myc beads overnight at 4 °C, beads washed three times and boiled; Western blot with anti-FLAG M2.

The source of these data is article PMC5114397.

Results are given in words; binding and its absence hold for the method and conditions named. Binding seen in cells or lysates may run through a third protein. Sequences can lack the tags named with a protein.

B1: FLAG-tagged neph1 (protein, UniProt Q96J84 17-757)
chain: QGTQTRFSQEPADQTVVAGQRAVLPCVLLNYSGIVQWTKDGLALGMGQGLKAWPRYRVVGSADAGQYNLEITDAELSDDASYECQATEAALRSRRAKLTVLIPPEDTRIDGGPVILLQAGTPHNLTCRAFNAKPAATIIWFRDGTQQEGAVASTELLKDGKRETTVSQLLINPTDLDIGRVFTCRSMNEAIPSGKETSIELDVHHPPTVTLSIEPQTVQEGERVVFTCQATANPEILGYRWAKGGFLIEDAHESRYETNVDYSFFTEPVSCEVHNKVGSTNVSTLVNVHFAPRIVVDPKPTTTDIGSDVTLTCVWVGNPPLTLTWTKKDSNMVLSNSNQLLLKSVTQADAGTYTCRAIVPRIGVAEREVPLYVNGPPIISSEAVQYAVRGDGGKVECFIGSTPPPDRIAWAWKENFLEVGTLERYTVERTNSGSGVLSTLTINNVMEADFQTHYNCTAWNSFGPGTAIIQLEEREVLPVGIIAGATIGASILLIFFFIALVFFLYRRRKGSRKDVTLRKLDIKVETVNREPLTMHSDREDDTASVSTATRVMKAIYSSFKDDVDLKQDLRCDTIDTREEYEMKDPTNGYYNVRAHEDRPSSRAVLYADYRAPGPARFDGRPSSRLSHSSGYAQLNTYSRGPASDYGPEPTPPGPAAPAGTDTTSQLSYENYEKFNSHPFPGAAGYPTYRLGYPQAPPSGLERTPYEAYDPIGKYATATRFSYTSQHSDYGQRFQQRMQTHV
On to B1, for which the binding result is “no binding”.

B2: FLAG-tagged nephrin (protein, UniProt O60500 23-1241)
chain: QLAIPASVPRGFWALPENLTVVEGASVELRCGVSTPGSAVQWAKDGLLLGPDPRIPGFPRYRLEGDPARGEFHLHIEACDLSDDAEYECQVGRSEMGPELVSPRVILSILVPPKLLLLTPEAGTMVTWVAGQEYVVNCVSGDAKPAPDITILLSGQTISDISANVNEGSQQKLFTVEATARVTPRSSDNRQLLVCEASSPALEAPIKASFTVNVLFPPGPPVIEWPGLDEGHVRAGQSLELPCVARGGNPLATLQWLKNGQPVSTAWGTEHTQAVARSVLVMTVRPEDHGAQLSCEAHNSVSAGTQEHGITLQVTFPPSAIIILGSASQTENKNVTLSCVSKSSRPRVLLRWWLGWRQLLPMEETVMDGLHGGHISMSNLTFLARREDNGLTLTCEAFSEAFTKETFKKSLILNVKYPAQKLWIEGPPEGQKLRAGTRVRLVCLAIGGNPEPSLMWYKDSRTVTESRLPQESRRVHLGSVEKSGSTFSRELVLVTGPSDNQAKFTCKAGQLSASTQLAVQFPPTNVTILANASALRPGDALNLTCVSVSSNPPVNLSWDKEGERLEGVAAPPRRAPFKGSAAARSVLLQVSSRDHGQRVTCRAHSAELRETVSSFYRLNVLYRPEFLGEQVLVVTAVEQGEALLPVSVSANPAPEAFNWTFRGYRLSPAGGPRHRILSSGALHLWNVTRADDGLYQLHCQNSEGTAEARLRLDVHYAPTIRALQDPTEVNVGGSVDIVCTVDANPILPGMFNWERLGEDEEDQSLDDMEKISRGPTGRLRIHHAKLAQAGAYQCIVDNGVAPPARRLLRLVVRFAPQVEHPTPLTKVAAAGDSTSSATLHCRARGVPNIVFTWTKNGVPLDLQDPRYTEHTYHQGGVHSSLLTIANVSAAQDYALFTCTATNALGSDQTNIQLVSISRPDPPSGLKVVSLTPHSVGLEWKPGFDGGLPQRFCIRYEALGTPGFHYVDVVPPQATTFTLTGLQPSTRYRVWLLASNALGDSGLADKGTQLPITTPGLHQPSGEPEDQLPTEPPSGPSGLPLLPVLFALGGLLLLSNASCVGGVLWQRRLRRLAEGISEKTEAGSEEDRVRNEYEESQWTGERDTQSSTVSTTEAEPYYRSLRDFSPQLPPTQEEVSYSRGFTGEDEDMAFPGHLYDEVERTYPPSGAWGPLYDEVQMGPWDLHWPEDTYQDPRGIYDQVAGDLDTLEPDSLPFELRGHLV
Take B2: the binding entry is “no binding”.
